Measurements published in publication doi:10.1101/2020.03.06.980961.
The exact form of at least one protein or probe is not confirmed. For part of these data: A negative result means that nothing was seen under these conditions. At least one verdict rests on a figure or table, not on a statement of the authors. Protein sequences can lack the tags named with them.

Key:
Assay in all cases: fluorescence anisotropy
[1] = biological target: T1, Mtf1-WT (Saccharomyces cerevisiae) (UniProt P14908); details: Buffer A
T1 sequence (looked up, limits assumed): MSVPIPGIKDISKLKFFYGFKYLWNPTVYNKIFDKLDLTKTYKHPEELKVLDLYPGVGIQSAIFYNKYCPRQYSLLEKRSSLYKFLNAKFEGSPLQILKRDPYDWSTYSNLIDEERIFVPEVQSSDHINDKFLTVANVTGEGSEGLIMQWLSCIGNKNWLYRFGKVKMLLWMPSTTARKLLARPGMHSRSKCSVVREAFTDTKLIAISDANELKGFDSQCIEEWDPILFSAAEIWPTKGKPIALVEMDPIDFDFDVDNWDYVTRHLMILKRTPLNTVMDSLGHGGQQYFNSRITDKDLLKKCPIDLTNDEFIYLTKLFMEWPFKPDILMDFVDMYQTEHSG

TFB2M-Δ13 (human) = biological target: T2, TFB2M-Δ13 (human) (UniProt Q9H5Q4); details: Buffer B, tighter than WT, value only in figure
T2 sequence (looked up, limits assumed): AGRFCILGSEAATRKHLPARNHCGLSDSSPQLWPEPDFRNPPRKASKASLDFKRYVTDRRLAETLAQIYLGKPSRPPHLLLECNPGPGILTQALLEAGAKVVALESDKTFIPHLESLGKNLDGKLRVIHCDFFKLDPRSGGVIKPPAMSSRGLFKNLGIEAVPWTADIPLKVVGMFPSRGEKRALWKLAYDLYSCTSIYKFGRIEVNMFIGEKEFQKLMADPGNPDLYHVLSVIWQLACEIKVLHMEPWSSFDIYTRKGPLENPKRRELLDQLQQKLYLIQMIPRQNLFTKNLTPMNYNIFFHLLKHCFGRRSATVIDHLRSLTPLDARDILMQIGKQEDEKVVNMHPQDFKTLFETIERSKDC

[2] = biological target: T3, Mtf1-Δ20 (Saccharomyces cerevisiae) (UniProt P14908); details: Buffer A, range given for all substrates
T3 sequence (looked up, limits assumed): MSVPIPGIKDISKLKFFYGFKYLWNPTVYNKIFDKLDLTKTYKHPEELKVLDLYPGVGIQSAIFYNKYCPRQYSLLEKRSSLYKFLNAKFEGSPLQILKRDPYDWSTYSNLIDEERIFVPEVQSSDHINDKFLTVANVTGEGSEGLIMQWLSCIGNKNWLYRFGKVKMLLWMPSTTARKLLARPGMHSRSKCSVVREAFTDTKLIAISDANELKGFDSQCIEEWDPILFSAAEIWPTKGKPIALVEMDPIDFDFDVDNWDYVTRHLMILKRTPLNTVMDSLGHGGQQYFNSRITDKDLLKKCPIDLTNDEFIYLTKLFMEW

TTTTTTTTTTTT [dT12]
binding result [1]: no binding | binding result (TFB2M-Δ13 (human)): binds | binding result [2]: binds
